Measured values: article PMC7785020, “A unique hormonal recognition feature of the human glucagon-like peptide-2 receptor” (Cell Research, 2020)
No constants are given. Whether binding was seen depends on the method and setting. For some assays here: In cells and extracts the contact can be indirect. Some results given as binding are weak or reduced against the parent protein; the word gives no strength. For some assays here: Sequences can lack the tags named with a protein.

Amino acid sequences for entries named in this document (tags omitted).
UniProt P54311: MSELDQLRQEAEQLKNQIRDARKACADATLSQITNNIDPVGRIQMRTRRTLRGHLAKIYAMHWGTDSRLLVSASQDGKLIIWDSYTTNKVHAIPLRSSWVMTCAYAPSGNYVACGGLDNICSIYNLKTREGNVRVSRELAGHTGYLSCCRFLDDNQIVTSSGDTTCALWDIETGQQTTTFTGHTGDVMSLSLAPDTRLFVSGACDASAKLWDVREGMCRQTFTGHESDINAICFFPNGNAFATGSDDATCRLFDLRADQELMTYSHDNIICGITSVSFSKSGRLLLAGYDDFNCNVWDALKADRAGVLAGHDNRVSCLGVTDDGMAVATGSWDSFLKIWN

Columns and labels:
[1] = target: T1, wild-type (WT) receptor(1–553)-LgBiT (human) (UniProt O95838); assay: split reporter; HEK 293T cells transfected 1:1 with receptor-LgBiT and Gβ-SmBiT or Gβ-HiBiT; coelenterazine H 5 μM; luminescence before and after ligand addition, 25 °C
T1 sequence: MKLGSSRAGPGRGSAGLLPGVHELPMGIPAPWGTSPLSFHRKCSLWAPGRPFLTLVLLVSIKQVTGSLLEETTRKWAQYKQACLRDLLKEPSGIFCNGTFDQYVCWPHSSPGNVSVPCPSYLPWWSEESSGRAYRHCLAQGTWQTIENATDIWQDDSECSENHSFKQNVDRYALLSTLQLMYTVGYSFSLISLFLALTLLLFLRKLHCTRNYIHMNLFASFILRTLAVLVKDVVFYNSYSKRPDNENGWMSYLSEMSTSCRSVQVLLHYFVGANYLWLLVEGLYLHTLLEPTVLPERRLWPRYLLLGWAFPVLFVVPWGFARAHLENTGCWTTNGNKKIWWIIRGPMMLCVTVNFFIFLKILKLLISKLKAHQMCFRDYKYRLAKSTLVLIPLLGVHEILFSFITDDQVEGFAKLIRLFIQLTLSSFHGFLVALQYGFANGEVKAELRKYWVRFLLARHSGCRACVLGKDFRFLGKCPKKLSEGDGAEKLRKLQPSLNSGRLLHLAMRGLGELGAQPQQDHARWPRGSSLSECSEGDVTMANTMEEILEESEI

[2] = target: T2, GLP-2R(1-490)-TEV-OMBP-MBP (human) (UniProt O95838); assay: SEC; receptor and G protein subunits co-expressed in Sf9 without NanoBiT tethering; complex formed with GLP-2 and Nb35, solubilised in LMNG/CHS, held on amylose resin, Superdex 200 Increase 10/30; fractions of the 11 ml peak on SDS-PAGE, Coomassie
T2 sequence: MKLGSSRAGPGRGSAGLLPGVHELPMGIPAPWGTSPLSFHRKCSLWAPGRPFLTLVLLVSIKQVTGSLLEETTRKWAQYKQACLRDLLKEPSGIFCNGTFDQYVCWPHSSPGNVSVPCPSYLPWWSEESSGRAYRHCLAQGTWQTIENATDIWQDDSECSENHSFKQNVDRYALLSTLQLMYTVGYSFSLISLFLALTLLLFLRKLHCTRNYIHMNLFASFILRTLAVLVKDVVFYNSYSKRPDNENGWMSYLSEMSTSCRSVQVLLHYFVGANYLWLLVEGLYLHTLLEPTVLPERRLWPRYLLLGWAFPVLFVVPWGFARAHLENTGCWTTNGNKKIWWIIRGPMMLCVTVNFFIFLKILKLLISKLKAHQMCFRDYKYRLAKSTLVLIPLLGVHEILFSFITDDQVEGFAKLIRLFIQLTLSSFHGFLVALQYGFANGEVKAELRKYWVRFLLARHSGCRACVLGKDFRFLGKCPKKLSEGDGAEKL

Substance	binding [1]	binding [2]
Gβ-SmBiT (from UniProt P54311 1-340)	binds	–
rat Gβ1 (from UniProt P54311 1-340)	–	binds
